Data on three molecules can be found in publication PMC11463362.

Amino acid sequences for entries named in this document (tags omitted).
UniProt Q6BDS2: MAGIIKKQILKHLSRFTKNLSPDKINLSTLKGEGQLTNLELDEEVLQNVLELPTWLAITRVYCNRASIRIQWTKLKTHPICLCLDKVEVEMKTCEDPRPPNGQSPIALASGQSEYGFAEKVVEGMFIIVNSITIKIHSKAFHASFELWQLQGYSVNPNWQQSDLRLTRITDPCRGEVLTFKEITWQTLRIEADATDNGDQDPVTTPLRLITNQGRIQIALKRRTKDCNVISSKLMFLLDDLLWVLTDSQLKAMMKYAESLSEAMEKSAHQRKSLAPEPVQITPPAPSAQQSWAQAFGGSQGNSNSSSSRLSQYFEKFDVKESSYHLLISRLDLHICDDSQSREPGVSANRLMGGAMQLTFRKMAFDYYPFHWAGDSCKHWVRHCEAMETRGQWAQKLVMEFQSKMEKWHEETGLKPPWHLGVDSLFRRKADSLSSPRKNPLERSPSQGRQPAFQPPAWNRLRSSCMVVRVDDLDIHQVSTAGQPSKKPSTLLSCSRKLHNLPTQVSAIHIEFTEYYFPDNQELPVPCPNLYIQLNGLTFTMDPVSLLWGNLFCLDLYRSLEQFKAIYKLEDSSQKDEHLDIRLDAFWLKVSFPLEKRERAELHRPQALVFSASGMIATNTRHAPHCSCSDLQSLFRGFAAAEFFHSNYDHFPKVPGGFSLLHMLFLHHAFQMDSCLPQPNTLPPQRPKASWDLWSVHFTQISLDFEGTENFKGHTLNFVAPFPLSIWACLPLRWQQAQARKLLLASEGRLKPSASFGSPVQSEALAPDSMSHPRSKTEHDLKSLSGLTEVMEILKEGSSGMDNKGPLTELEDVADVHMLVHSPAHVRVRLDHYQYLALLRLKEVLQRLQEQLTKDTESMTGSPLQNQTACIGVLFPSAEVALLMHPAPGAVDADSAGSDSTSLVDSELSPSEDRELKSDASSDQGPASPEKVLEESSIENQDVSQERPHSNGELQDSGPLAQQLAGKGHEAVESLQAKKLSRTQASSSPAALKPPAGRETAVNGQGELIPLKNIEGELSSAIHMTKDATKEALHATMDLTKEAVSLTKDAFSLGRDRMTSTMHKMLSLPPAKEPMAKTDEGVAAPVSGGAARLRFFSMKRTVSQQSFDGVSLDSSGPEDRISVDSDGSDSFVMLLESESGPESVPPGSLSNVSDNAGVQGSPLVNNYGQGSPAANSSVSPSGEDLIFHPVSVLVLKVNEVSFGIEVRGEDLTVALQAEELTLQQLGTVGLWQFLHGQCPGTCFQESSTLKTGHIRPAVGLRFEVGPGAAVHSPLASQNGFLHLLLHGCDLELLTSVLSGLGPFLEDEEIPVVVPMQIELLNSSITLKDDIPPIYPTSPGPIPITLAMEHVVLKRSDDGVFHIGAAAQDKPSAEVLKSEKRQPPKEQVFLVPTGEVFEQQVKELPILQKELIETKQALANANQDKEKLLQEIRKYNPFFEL
UniProt O95166: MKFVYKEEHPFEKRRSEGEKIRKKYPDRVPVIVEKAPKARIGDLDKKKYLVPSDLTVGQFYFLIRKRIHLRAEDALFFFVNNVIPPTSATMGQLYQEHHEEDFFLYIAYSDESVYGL

For the assay, the target named is bridge-like lipid transfer protein 3A (BLTP3A), endogenously tagged with V5 (BLTP3A^V5) (human (endogenous in A549)) (UniProt Q6BDS2). The assay can be described thus: affinity purification with mass spectrometry; anti-V5 magnetic resin (ChromoTek) on lysate of A549 cells with endogenously V5-tagged BLTP3A; 50 mM Tris pH 7.6, 150 mM NaCl, 1% Triton X-100, 4°C, 2 hrs; unedited A549 cells as control; n=3.

These are yes or no findings as the source states them, for the method shown. Binding seen in cells or lysates may run through a third protein. A yes stands for co-enrichment or nearness to the bait. Other partners may have been found.

In the case of GABARAP (from UniProt O95166 1-117), the binding result is given as “binds”.

B1: Rab27B (protein, UniProt O00194 1-218)
chain: MTDGDYDYLIKLLALGDSGVGKTTFLYRYTDNKFNPKFITTVGIDFREKRVVYNAQGPNGSSGKAFKVHLQLWDTAGQERFRSLTTAFFRDAMGFLLMFDLTSQQSFLNVRNWMSQLQANAYCENPDIVLIGNKADLPDQREVNERQARELADKYGIPYFETSAATGQNVEKAVETLLDLIMKRMEQCVEKTQIPDTVNGGNSGNLDGEKPPEKKCIC
Turning to B1, the binding entry is listed as “binds”.

B2: melanophilin (MLPH) (protein, UniProt Q9BV36 1-600)
chain: MGKKLDLSKLTDEEAQHVLEVVQRDFDLRRKEEERLEALKGKIKKESSKRELLSDTAHLNETHCARCLQPYQLLVNSKRQCLECGLFTCKSCGRVHPEEQGWICDPCHLARVVKIGSLEWYYEHVKARFKRFGSAKVIRSLHGRLQGGAGPELISEERSGDSDQTDEDGEPGSEAQAQAQPFGSKKKRLLSVHDFDFEGDSDDSTQPQGHSLHLSSVPEARDSPQSLTDESCSEKAAPHKAEGLEEADTGASGCHSHPEEQPTSISPSRHGALAELCPPGGSHRMALGTAAALGSNVIRNEQLPLQYLADVDTSDEESIRAHVMASHHSKRRGRASSESQIFELNKHISAVECLLTYLENTVVPPLAKGLGAGVRTEADVEEEALRRKLEELTSNVSDQETSSEEEEAKDEKAEPNRDKSVGPLPQADPEVGTAAHQTNRQEKSPQDPGDPVQYNRTTDEELSELEDRVAVTASEVQQAESEVSDIESRIAALRAAGLTVKPSGKPRRKSNLPIFLPRVAGKLGKRPEDPNADPSSEAKAMAVPYLLRRKFSNSLKSQGKDDDSFDRKSVYRGSLTQRNPNARKGMASHTFAKPVVAHQS
For B2, the binding entry is recorded as “binds”.
